Assay results published in patent US12378320B2, “Methods for treating pancreatitis” (Cold Spring Harbor Laboratory, priority 2018, dated 2025).

Test system: CA19-9 modified proteins
Assay: CA19-9 IP/MS (iTRAQ) of organoid conditioned media after Dox treatment
Parameters: species or system mouse
[1] = A217 (genetic negative) organoids conditioned media, after 8 hours of treatment, CA19-9 IP with 5B1, relative to 17 0H NS19
[2] = A217 (genetic negative) organoids conditioned media, after 8 hours of treatment, CA19-9 IP with NS19-9, relative to 17 0H NS19
[3] = A217 (genetic negative) organoids conditioned media, before treatment (0H), CA19-9 IP with NS19-9, relative abundance, reference channel
[4] = A220 (C;R^LSL;F) organoids conditioned media, before treatment (0H), CA19-9 IP with 5B1, relative to 17 0H NS19
[5] = CA19-9 IP/MS relative abundance, A217 (genetic negative) organoid conditioned media, after 8 hours, IP with 5B1
[6] = CA19-9 IP/MS relative abundance, A217 (genetic negative) organoid conditioned media, after 8 hours, IP with NS19-9
[7] = CA19-9 IP/MS relative abundance, A220 (C;R^LSL;F) organoid conditioned media, 0H (before treatment), IP with 5B1

| Molecule | 17 8H 5B1 [1] | 17 8H NS19 [2] | 17 0H NS19 [3] | 20 0H 5B1 [4] | 17 0H NS19 (CA19-9 IP/MS relative abundance, A217 (genetic negative) organoid conditioned media, 0H (before treatment), IP with NS19-9, reference channel = 1) | 17 8H 5B1 [5] | 17 8H NS19 [6] | 20 0H 5B1 [7] |
| --- | --- | --- | --- | --- | --- | --- | --- | --- |
| Q9EPL8 (protein, UniProt Q9EPL8 1-1038, looked up, full-length) MDPNTIIEALRGTMDPALREAAERQLNEAHKSLNFVSTLLQITMSEQLDLPVRQAGVIYLKNMITQYWPDREATPGDIAPYTIPEEDRHCIRENIVEAIIHSPELIRVQLTTCIHHIIKHDYPSRWTAIVDKIGFYLQSDNSACWLGILLCLYQLVKNYEYKKPEERSPLVAAMQHFLPVLKDRFIQLLSDQSDQSVLIQKQIFKIFYALVQYTLPLELINQQNLTEWVEILKTVVNRDVPNETLQVEEDDRPELPWWKCKKWALHILARLFERYGSPGNVSKEYNEFAEVFLKAFAVGVQQVLLKVLYQYKEKQYMAPRVLQQTLNYINQGVSHALTWKNLKPHIQGIIQDVIFPLMCYTDADEELWQEDPYEYIRMKFDVFEDFISPTTAAQTLLFTACSKRKEVLQKTMGFCYQILTEPNADPRKKDGALHMIGSLAEILLKKKIYKDQMEYMLQNHVFPLFSSELGYMRARACWVLHYFCEVKFKSDQNLQTALELTRRCLIDDREMPVKVEAAIALQVLISNQEKAKEYITPFIRPVMQALLHIIRETENDDLTNVIQKMICEYSEEVTPIAVEMTQHLAMTFNQVIQTGPDEEGSDDKAVTAMGILNTIDTLLSVVEDHKEITQQLEGICLQVIGTVLQQHVLEFYEEIFSLAHSLTCQQVSPQMWQLLPLVFEVFQQDGFDYFTDMMPLLHNYVTVDTDTLLSDTKYLEMIYSMCKKVLTGVAGEDAECHAAKLLEVIILQCKGRGIDQCIPLFVEAALERLTREVKTSELRTMCLQVAIAALYYNPHLLLNTLENLRFPNNVEPVTNHFITQWLNDVDCFLGLHDRKMCVLGLCALIDMEQIPQVLNQVSGQILPAFILLFNGLKRAYACHAEHENDSDDDEDAEDDDETEELGSDEDDIDEDGQEYLEILAKQAGEDGDDEDWEEDDAEETALEGYSTIIDDEDNPVDEYQIFKAIFQTIQNRNPVWYQALTHGLNEEQRKQLQDIATLADQRRAAHESKMIEKHGGYKFSAPVVPSSFNFGGPAPGMN | 2.393 | 0.552 | 1 | 1.635 | – | – | – | – |
| Q91X72 (protein, UniProt Q91X72 1-460, looked up, full-length) MARTAVALNILVLLGLCWSLAVASPLPTANGRVAEVENGTKPDSDVPEHCLDTWSFDAATMDHNGTMLFFKGEFVWRGHSGTRELISARWKNPITSVDAAFRGPDSVFLIKEDKVWVYPPEKKENGYPKLFQEEFPGIPYPPDAAVECHRGECQSEGVLFFQGNRKWFWDFATRTQKERSWSTVGNCTAALRWLERYYCFQGNKFLRFNPVTGEVPPRYPLDARDYFVSCPGRGHGRPRNGTAHGNSTHPMHSRCSPDPGLTALLSDHRGATYAFTGSHYWRLDSSRDGWHSWPIAHHWPQGPSTVDAAFSWDDKVYLIQGTQVYVFLTKGGNNLVSGYPKRLEKELGSPPGISLETIDAAFSCPGSSRLYVSSGRRLWWLDLKSGAQATWTEVSWPHEKVDGALCLDKSLGPNTCSSNGSSLYFIHGPNLYCYSSIDKLNAAKSLPQPQKVNSILGCSQ | 0.697 | 0.661 | 1 | 0.649 | – | – | – | – |
| Q3TTY5 (protein, UniProt Q3TTY5 1-707, looked up, full-length) MSCQISCRSRRGGGGGGGGGFRGFSSGSAVVSGGSRRSNTSFSCISRHGGGRGGSGGGGFGSQSLVGLGGYKSISSSVAGNSGGYGGSSFGGSSGFGGGRGFGGGQGFGGSGGFGGGSGFGGGQGFGGGSRFGGGSGFGGGGFGGGSFGGGRFGGGPGGFGGPGGFPGGGIHEVSVNQSLLQPLDVKVDPEIQNVKSQEREQIKTLNNKFASFIDKVRFLEQQNQVLRTKWELLQQLDVGSRTTNLDPIFQAYIGMLKKQVDRLSAERTSQESELNNMQDLVEDFKKKYEDEINKRTSAENDFVTIKKDVDSCYMDKTELQARLDILAQEVNFLRTLYDAELSQLQQDVTDTNVILSMDNNRNLDLDSIIAEVQNQYEMIAHKSKAESEELYHSKYEELQVTAVKHGDSLKEIKMEISELNRTIQRLQGEISHVKKQCKGVQDSIADAEQRGEHAIKDARGKLTDLEEALQQCREDLARLLRDYQELMNTKLSLDVEIATYRKLLEGEECRMSGDFSDNVSVSITSSTISSSVASKTGFGSGGQSSGGRGSYGGRGGGGGGGSTYGSGGRSSGSRGSGSGSGGGGYSSGGGSRGGSGGGYGSGGGSRGGSGGGYGSGGGSGSGGGYSSGGGSRGGSGGGGVSSGGGSRGGSSSGGGSRGGSSSGGGGYSSGGGSRGGSSSGGAGSSSEKGGSGSGEGCGSGVTFSFR | – | – | – | – | 1 | 0.65 | 2.077 | 1.285 |
| P23116 (protein, UniProt P23116 1-1344, looked up, full-length) MPAYFQRPENALKRANEFLEVGKKQPALDVLYDVMKSKKHRTWQKIHEPIMLKYLELCVDLRKSHLAKEGLYQYKNICQQVNIKSLEDVVRAYLKLAEEKTEAAKEESQQMVLDIEDLDNIQTPESVLLSAVSGEDTQDRTDRLLLTPWVKFLWESYRQCLDLLRNNSRVERLYHDIAQQAFKFCLQYTRKAEFRKLCDNLRMHLSQIQRHHNQSTAINLNNPESQSMHLETRLVQLDSAISMELWQEAFKAVEDIHGLFSLSKKPPKPQLMANYYNKVSTVFWKSGNALFHASTLHRLYHLSREMRKNLTQEEMQRMSTRVLLATLSIPITPERTDIARLLDMDGIIVEKQRRLATLLGLQAPPTRIGLINDMVRFSVLQYVVPEVKDLYNWLEVEFNPLKLCERVTKVLNWVREQPEKEPELQQYVPQLQNNTILRLLQQVAQIYQSIEFSRLTSLVPFVDAFQLERAIVDAARHCDLQVRIDHTSRTLSFGSDLNYATREDAPVGPHLQSMPSEQIRNQLTAMSSVLAKALEVIRPAHILQEKEEQHQLAVNAYLKNSRKEHQRILARRQTIEERKERLESLNIQREKEELEQREAELQKVRKAEEERLRQEAKEREKERILQEHEQIKKKTVRERLEQIKKTELGAKAFKDIDIEDLEELDPDFIMAKQVEQLEKEKKELQERLKNQEKKIDYFERAKRLEEIPLIKSAYEEQRVKDMDLWEQQEEERITTMQLEREKALEHKNRMSRMLEDRDLFVMRLKAARQSVYEEKLKQFEERLAEERHSRLEDRKRQRKEERKITYYREKEEEEQRRAEEQMLKEREERERAERAKREEELREYQERVKKLEEVERKKRQRELEIEERERRREEERRLGDDPLSRKDSRWGDRDSEGTWRKGPEADSEWRRGPPEKEWRRETRDDERPHRRDEDRLRRLGGDDEERESSLRPDDDRIPRRGLDDDRGPRRGPDEDRFSRRGTDDDRPSWRNADDDRPPRRIGDDDRGSWRHTDDDRPPRRGLDDERGSWRTADEDRGPRRGMDDDRGPRRGGADDERSSWRNADDDRGPRRGMDDDRGPRRGLDDDRGPWRNAAEDRISRRGADDDRGPWRNMDDDRVPRRGDDARPGPWRPFVKPGGWREKEKAREESWGPPRESRPSEEREWDRDKEKDRDNQDREENDKDLERDRDRERDGDREDRFRRPRDEGGWRRGPAEESSSWRDSSRRDDRDREDRRRDRDDRRDLRDLRDRRDLRDDRDRRGPPLRSEREEASSWRRTDDRKDDRTEERDPPRRVPPPALSRDREREREREGEKEKASWRAEKDRESLRRTKNETDEDGWTTVRR | 3.66 | 0.436 | 1 | 3.444 | – | – | – | – |
| Q3UV17 (protein, UniProt Q3UV17 1-594, looked up, full-length) MSRQACKKSFSCGSQGFSGHSAVVSGSSRSSCVARSGAASGGACGFRSGAGSLGSHSLYSLGGSKSISISVAAGGSRAGGFSGGRSSCGSGFGSGYGGSLGGSRGMGAGFGGPSGFGGAGGFGRPGSFGPGSCPGGIQEVTINQSLLQPLNVEIDPQIGQVKAQEREQIKTLNNKFASFIDKVRFLEQQNKVLETKWELLQQQTIRSGSGPQNLEPFFESYISCLRKQLDSLLGAKGSLEGELKSMQDLVEDFKKKYEEEINRRTAAENEFVGLKKDVDGAFMNKVELQAKVDSLTDEINFLRTLYDMELSQIQSHVSDTSVVLSMDNNRCLDLDSIIAEVKAQYEDIAQKSKAEAEALYQTKLGELQTTAGRHGDDLRSTKSEIMDLNRMIQRLRAEIENVKKQNTNMQTSIAEAEQRGERALKDADTKFQDLQVALQKAKEDMARLLKEYQELMNVKLALDVEIATYRKLLEGEECRLSGEFQNAVSISVVSNVTSTSSSGSFRGTGGSNYGGDSSGRSGGSSSSSSRGSSSRGSSGSRLGSGGSISVSQQRMGFNSGGSQTSVGSSYKSGRGGSSSVQFSQTTSSSQQRSK | – | – | – | – | – | 0.725 | 1.383 | 1.003 |
| Q6P5F9 (protein, UniProt Q6P5F9 1-1071, looked up, full-length) MPAIMTMLADHAARQLLDFSQKLDINLLDNVVNCLYHGEGAQQRMAQEVLTHLKEHPDAWTRVDTILEFSQNMNTKYYGLQILENVIKTRWKILPRNQCEGIKKYVVGLIIKTSSDPTCVEKEKVYIGKLNMILVQILKQEWPKHWPTFISDIVGASRTSESLCQNNMVILKLLSEEVFDFSSGQITQVKAKHLKDSMCNEFSQIFQLCQFVMENSQNAPLVHATLETLLRFLNWIPLGYIFETKLISTLIYKFLNVPMFRNVSLKCLTEIAGVSVSQYEEQFETLFTLTMMQLKQMLPLNTNIRLAYSNGKDDEQNFIQNLSLFLCTFLKEHGQLLEKRLNLREALMEALHYMLLVSEVEETEIFKICLEYWNHLAAELYRESPFSTSASPLLSGSQHFDIPPRRQLYLTVLSKVRLLMVSRMAKPEEVLVVENDQGEVVREFMKDTDSINLYKNMRETLVYLTHLDYVDTEIIMTKKLQNQVNGTEWSWKNLNTLCWAIGSISGAMHEEDEKRFLVTVIKDLLGLCEQKRGKDNKAIIASNIMYIVGQYPRFLRAHWKFLKTVVNKLFEFMHETHDGVQDMACDTFIKIAQKCRRHFVQVQVGEVMPFIDEILNNINTIICDLQPQQVHTFYEAVGYMIGAQTDQTVQEHLIEKYMLLPNQVWDSIIQQATKNVDILKDPETVKQLGSILKTNVRACKAVGHPFVIQLGRIYLDMLNVYKCLSENISAAIQANGEMVTKQPLIRSMRTVKRETLKLISGWVSRSNDPQMVAENFVPPLLDAVLIDYQRNVPAAREPEVLSTMAIIVNKLGGHITAEIPQIFDAVFECTLNMINKDFEEYPEHRTNFFLLLQAVNSHCFPAFLAIPPAQFKLVLDSIIWAFKHTMRNVADTGLQILFTLLQNVAQEEAAAQSFYQTYFCDILQHIFSVVTDTSHTAGLTMHASILAYMFNLVEEGKISTPLNPGNPVNNQMFIQDYVANLLKSAFPHLQDAQVKLFVTGLFSLNQDIPAFKEHLRDFLVQIKEFAGEDTSDLFLEERETALRQAQEEKHKLQMSVPGILNPHEIPEEMCD | 1.927 | 0.494 | 1 | 1.524 | – | – | – | – |
